The source of these data is PubChem BioAssay AID1745846 (National Center for Advancing Translational Sciences (NCATS), 2022).

The campaign covered roughly 1,400 compounds. About 30 (2%) were called active. Not shown: some 15% with an inconclusive outcome. The call rests on the fitted dose curve; in most records, active means well fitted inhibition curve with a large enough effect; inconclusive means small, poorly fitted or top-dose-only effect; inactive means flat fitted curve, though single readings scatter. Some of the results follow.
On the % scale 0 is the no-effect control and ±100 the full control effect; potency means the concentration at half of the fitted maximal effect.

The assay in a line: Firefly Luciferase Counterscreen for Inhibitors of ATXN expression. Particulars: luminescence; series mostly up to 57.5 µM; activity change, negative = inhibition: at the top concentration. A digest of the protocol:
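Recombinant firefly luciferase at 10 nM final in 50 mM Tris pH 7.5, 10 mM MgCl2, 0.05% BSA, 0.01% Tween20 with substrate; compounds up to 57 uM final, 10 min room temperature, end-point luminescence. Buffer-only wells define 100% inhibition.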
For orientation: A counterscreen serves to expose hits that act by an unwanted route or on another target.
As to `COc1ccc(-c2nc(NC(=O)C3CC(=O)N(c4ccc5c(c4)OCCO5)C3)sc2C)cc1` (centres undefined), the “activity change, negative = inhibition” value was inactive: -10.4%. As to `C=CCNc1oc(-c2ccc(Cl)cc2)nc1C#N`, the “activity change, negative = inhibition” value was inactive: 2.23%.

Regarding `CCOc1ccc(OCC)c(NC(=O)Nc2ccc3c(c2)N(C)C(=O)CS3)c1`, the “activity change, negative = inhibition” value was inactive: -10.2%. With `CC1C(=O)C(C)C(c2cc(Br)ccc2O)NC1c1cc(Br)ccc1O` (centres undefined), the “activity change, negative = inhibition” value is inactive: -3.17%.

Take `C=CCc1ccccc1OCC(O)CN1CCN(CCN2C(=O)c3cccc4cccc(c34)C2=O)CC1` (centres undefined): the “activity change, negative = inhibition” value was inactive: -1.49%. On the same count and under the same terms, to `CC(=O)Oc1c(Br)cc(N(C(C)=O)S(=O)(=O)c2ccccc2)c2ccccc12` belongs inactive: -17.5%. Still for that read-out and setting: to `CNC(=O)c1sc(N2N=C3/C(=C/c4ccccc4)CCCC3C2c2ccccc2)nc1C` (centres undefined) belongs inactive: -2.34%; to `O=C(Nc1cccc(-c2cccc(Cl)c2)c1)C1CCN(Cc2ccccn2)CC1`, inactive: -8.36%. Still for that read-out and setting: to `Cc1cc(N/N=C\c2ccc(Br)cc2)nc(-n2nc(C)cc2C)n1` belongs inactive: -1.82%; to `CC1Sc2ccc(S(=O)(=O)CCC(=O)N3CCN(c4cccc(Cl)c4)CC3)cc2NC1=O` (centres undefined), inactive: -1.49%. Turning to `CCC(=O)NC(c1ccc(Cl)cc1Cl)c1ccc2cccnc2c1O` (centres undefined), the “activity change, negative = inhibition” value is inactive: -9.67%. Same read-out and setting: to `Cc1ccc(NS(=O)(=O)c2ccc(NC(=O)C(C)Sc3ccc(Cl)cc3)cc2)c(C)c1` (centres undefined) belongs inactive: -6.61%. Regarding `CCOC(=O)c1c(NC(=O)COC(=O)Cn2cnc3ccccc32)sc(C)c1C`, the “activity change, negative = inhibition” value was inactive: -3.67%. The same measure, in the same setting: to `CCC(=O)OC1(C(C)=O)CCC2C3CCC4=CC(=O)CCC4(C)C3CCC21C` (centres undefined) belongs inactive: 5.01%.

With `O=C(Nc1ccccc1Cl)N1CCCN(c2nc(-c3ccccc3)ns2)CC1`, the “activity change, negative = inhibition” value is inactive: -6.35%. As for `O=C(Nc1nc(-c2ccccn2)cs1)c1ccc(F)c(S(=O)(=O)N2CCOCC2)c1`, the “activity change, negative = inhibition” value is inactive: -19.5%. The same measure, in the same setting: to `COc1ccc(C2CC(c3cccc(Br)c3)=NN2c2ccc(S(N)(=O)=O)cc2)cc1` (centres undefined) belongs inactive: -5.04%.

For `CCCOCc1ccc(O)c2ncccc12`, the “activity change, negative = inhibition” value was inactive: 0.895%. Consider `CC1CCN(Cc2c(C(=O)N/N=C/c3ccccc3O)nnn2-c2nonc2N)CC1`, for which the “activity change, negative = inhibition” value was inactive: 1.7%.

As for `COc1ccccc1NCC(=O)N/N=C/c1c(O)ccc2ccccc12`, the “activity change, negative = inhibition” value is inactive: -4.67%. Still for that read-out and setting: to `CC(=O)Nc1cccc(-c2ccnc3c2CC(C)(C(=O)Nc2cccc(Oc4ccccc4)c2)O3)c1` (centres undefined) belongs inactive: -1.45%; to `O=C(NNC(=O)c1cnccn1)c1ccc(Cl)c(Cl)c1`, inactive: -13.3%; to `CCCc1nc2c(c(=O)c3ccccc3n2C)c(=O)n1C1CCCCCC1`, inactive: 1.5%. Same read-out and setting: to `CS/C(=C\[N+](=O)[O-])Nc1ccc(OC(F)(F)F)cc1` belongs inactive: -12.1%; to `CCN1CCN(C(c2ccc(C(F)(F)F)cc2)c2ccc3cccnc3c2O)CC1` (centres undefined), inactive: -0.327%; to `O=C(CSc1nnnn1-c1ccccc1)Nc1nsc(-c2ccccc2)n1`, inactive: -1.47%. Same read-out and setting: to `O=C(Nc1nc(NC(=O)c2ccco2)n(-c2ccccc2)n1)c1ccccc1` belongs inactive: 3.47%.

Take `Cc1cc(-c2ccccc2)n(-c2cc(N/N=C/c3ccccc3O)ncn2)n1`: the “activity change, negative = inhibition” value is inactive: 1.36%. Still for that read-out and setting: to `CN1CCN(c2nc(-c3ccccn3)nc3ccccc23)CC1` belongs inactive: -0.396%. As to `Cc1c(-c2cccc(Cl)c2)nc2ccccc2c1C(=O)OC/C(O)=C(\C#N)c1nc2ccccc2[nH]1`, the “activity change, negative = inhibition” value is inactive: -9.44%. The same measure, in the same setting: to `CCCn1ncc(CN2CCC(C(=O)Nc3cccc(-c4cccc(F)c4)c3)CC2)c1C` belongs inactive: -7.08%; to `Cn1c(NCCN2CCCC2)nc2cc(-c3ccsc3)sc2c1=O`, inactive: -2.46%; to `Cc1cc(C)nc(N/N=C2/CCCC/C2=C\c2ccccc2)n1`, inactive: -3.98%. Still for that read-out and setting: to `CCOC(=O)C(CC)(CC)C(=O)/C=C/c1ccc(OC)cc1` belongs inactive: 2.01%.

Consider `Cc1ccc(S(=O)(=O)/N=C(\Sc2ccccc2)c2ccccc2)cc1`, for which the “activity change, negative = inhibition” value was inactive: -13.3%. Still for that read-out and setting: to `O=c1cc(N2CCN(c3cccc(Cl)c3)CC2)[nH]c(=O)n1C1CCCCC1` belongs inactive: 7.81%; to `CCOc1cc(/C=C(/C#N)c2nc3ccccc3[nH]2)ccc1Oc1ccc([N+](=O)[O-])cn1`, inactive: -2.22%; to `Cc1ccc(C(=O)N/N=C/c2nc3ccccc3n2C)cc1`, inactive: -19.4%. With `Cc1c(N/N=C(\C#N)C(=O)c2ccccc2)c(=O)n(-c2ccccc2)n1C`, the “activity change, negative = inhibition” value was inactive: -3.2%. Still for that read-out and setting: to `O=C(NNC(=O)C(c1ccccc1)c1ccccc1)c1ccccn1` belongs inactive: -0.424%; to `CC(C)(C)c1cc(C(=O)NNc2cc(C(F)(F)F)ccc2Cl)n(Cc2ccccc2)n1`, inactive: -5.25%. The same measure, in the same setting: to `CN(Cc1ccccc1)C(=O)c1ccc(Nc2nc(C(N)Cc3ccccc3)cs2)nc1` (centres undefined) belongs inactive: 0.41%; to `COCOCCn1cc(CN2CCS(=O)(=O)N(Cc3ccc(-c4ccc(OC)cc4)cc3)C(CC(C)C)C2=O)nn1` (centres undefined), inactive: -1.23%. For the compound `C=CCc1cccc(/C=N/NC(=O)CCCNc2ccc(C)cc2)c1O`, the “activity change, negative = inhibition” value is inactive: -8.26%.

`O=C(CSc1nnc(-c2ccc(Br)cc2)o1)Nc1cccc(C(=O)O)c1`: the Potency was active: 3.98 µM. Regarding `CC1CCCCN1C(=O)C1CCN(c2nc(-c3ccccc3)nc3c2CCC3)CC1` (centres undefined), the “activity change, negative = inhibition” value was inactive: -2.74%. Consider `COC1=CC(=O)C=C(OC)C1(O)CC(C)=O`, for which the “activity change, negative = inhibition” value was inactive: -1.23%.

As to `Cc1cccc2sc(NNC(=O)c3ccc(S(=O)(=O)N4CCCC(C)C4)cc3)nc12` (centres undefined), the “activity change, negative = inhibition” value is inactive: -15.4%.

For the compound `CC(=O)NC(C)c1cc(Cl)c2cccnc2c1O` (centres undefined), the “activity change, negative = inhibition” value was inactive: -4.01%. On the same count and under the same terms, to `COc1ccc(NC(C)C(=O)N/N=C/c2c(O)ccc3ccccc23)cc1` (centres undefined) belongs inactive: 1.12%. Regarding `O=C(Nc1nc(-c2ccccc2)cs1)c1ccccc1NS(=O)(=O)c1ccc(F)cc1`, the Potency is active: 28.2 µM.

As for `Cc1ccc(C(=O)NC(C)CCc2ccccc2)cc1S(=O)(=O)N1CCOCC1` (centres undefined), the “activity change, negative = inhibition” value was inactive: -2.51%. On the same count and under the same terms, to `Cc1ccc(S(=O)(=O)Nc2cccc3cccnc23)c([N+](=O)[O-])c1` belongs inactive: -9.22%; to `COC(=O)c1ccsc1NC(=O)CN1CCN(Cc2ccc3c(c2)OCO3)CC1`, inactive: 0.15%. The same measure, in the same setting: to `CCN(CC)S(=O)(=O)c1cccc(C(=O)N/N=C(\C)c2ccc(O)cc2O)c1` belongs inactive: -10.3%; to `Fc1ccc(Nc2nnc(C(F)(F)F)s2)cc1Cl`, inactive: -13.2%; to `C=CCn1c(COc2ccccc2)nnc1SC(C)C(=O)N/N=C/c1cc(Cl)ccc1O` (centres undefined), inactive: -15.3%. Regarding `COc1ccc(NS(=O)(=O)c2ccc(NC(=O)c3ccc(CN4CCOCC4)cc3)cc2)cc1`, the “activity change, negative = inhibition” value was inactive: -4.61%.

With `O=C(Nc1ccc(N2CCN(C(=O)c3ccco3)CC2)c(Cl)c1)c1cccs1`, the “activity change, negative = inhibition” value is inactive: -17.5%.

As to `Cn1c(CO)cnc1SCC(=O)c1ccc(Br)cc1`, the “activity change, negative = inhibition” value was inactive: -8.93%.

Regarding `CC(Nc1ccccc1CO)C(=O)Nc1cccc(Cl)c1Cl` (centres undefined), the “activity change, negative = inhibition” value is inactive: 0.991%. On to `S=C(NCCCN1CCOCC1)N1CCN(c2nc(-c3ccccc3)cs2)CC1`, for which the “activity change, negative = inhibition” value was inactive: -13.2%. Take `Cc1cc(C(=O)N/N=C/c2ccc([N+](=O)[O-])s2)n[nH]1`: the “activity change, negative = inhibition” value was inactive: -6.06%. The same measure, in the same setting: to `COc1ccc(/C=N/NC(=O)c2nc(-c3ccccc3)n(-c3ccccc3)n2)c(O)c1` belongs inactive: -18.1%.
